B1: il2ra_site1_2b5i_normal_mot_HHH_b1_01419_af2_000000080_0001_42_53_H_._HHH_b2_03145_af2_0001_0000300010_0000001_0 (protein)
chain: SSSSDEVEQEVDELFLKASRLFLNGNPEEAEELLEEALRLAEENNDERAAEQVRFMLERLKSSSS
B2: il2ra_site1_3nfp_normal_mot_HHH_b2_08102_af2_000000255_0001_38_50_H_._HHH_b2_05157_0001_0000400017_0000001_0_af2pred_0001_af2pred (protein)
chain: SSSSDHLAREYTEWAKRRIRELLERGDEEAARRLLEKAKRSLEIAGDEEAVEELEKLYEELSSSS
B3: il2ra_site2_3nfp_normal_mot_HHH_b1_00660_af2_000000090_0001_40_57_H_._ems_3hM_3525_af2_0001_0000100004_0000001_1_af2pred_0001_1_af2pred_swapped (protein)
chain: SSSAEEIRELIHRLLLIAVERRDHELIIFVLEVLEEVERLLLKGDEEEAKEVAKEAKEEVEKKSS
B4: il2ra_site1_1z92_sap_20_mot_HHH_b1_03619_000000222_0001_22_39_H_._HHH_b2_05240_0001_0000400039_0000001_0_0001_af2pred_0001_af2pred_1 (protein)
chain: DLLEKLEELLEEENDPALEVLRTLEKLAEEGDPAAKFMLEQIEKKLELGDPEAVKKLLERALRSI
B5: il2ra_site1_1z92_normal_mot_57fbbab2d607e533440bfb1b251026a3_0001_af2_000000189_0001_1_16_H_._HHH_b1_08204_0001_0000300017_0000001_1_1_af2pred_dldesign_0_af2pre … (protein)
chain: SSSSSSQELLDEAKERVAEYKRTRDPALRRETLEFINEAHQKAEDEEVQDKLYELYKELSSSSSS
B6: il2ra_site2_3nfp_sap_11_mot_HHH_b1_00660_af2_000000090_0001_40_57_H_._HHH_b1_02627_0001_0000100013_0000001_0_0001 (protein)
chain: SSSSSEEEKEVEELVREAERLEEEGNPEEARKILKEAALIAAQNRDFELFVAVLELLSKILSSSS
B7: il2ra_site2_3nfp_normal_mot_HHH_b1_05627_af2_000000038_0001_43_56_H_._HHH_b1_03892_af2_0001_0000100002_0000001_0 (protein)
chain: SSSSDKAEEYLKIALEILRLALEFGDEESIRNHLEAVELAAELLNDEEAEELVEEVRKRLSSSSS
B8: il2ra_site1_3nfp_normal_mot_HHH_b1_07204_af2_000000238_0001_41_55_H_._6a77b3dc8dec33c5384193294071f013_0001_0001_0000300016_0000001_0 (protein)
chain: EDRIARRLIEDLLNIPPEAVERLLEVLKKLIKEGDPEYEEELKELIEELLNVPPERARRLVKLLK
B9: il2ra_site1_3nfp_sap_17_mot_1dfc56a8f07a39e834a69883c800ee5d_0001_1_af2_000000099_0001_1_15_H_._b24aaf5b6f53f31ef722bfa630a8caa2_0001_0001_0000200019_0000001_0_ … (protein)
chain: SSSSSVRKFLRIAKQIQKLLNEGDPEEAEELLEELEELAKERGSRLARRLVEILEKQIKNRSSSS
B10: il2ra_site1_3nfp_normal_mot_HHH_b1_01231_af2_000000170_0001_1_16_H_._HHH_b1_02076_0001_0000200037_0000001_0_af2pred_0001_af2pred (protein)
chain: SSSSSSDEELRLKLRVLRLLVRITDPEEARRVLEEAEELAKELGDERLLEELERLLKLLGSSSSS
B11: il2ra_site1_2b5i_normal_mot_HHH_b2_07442_af2_000000069_0001_1_16_H_._HHH_b1_07342_0001_0000300022_0000001_0 (protein)
chain: SSSSDDEEIDELFRQASQLFRKGDTEEARRLIEEALEIAEEQGDENQKRDLEFLLEQLKKASSSS
B12: il2ra_site2_3nfp_normal_mot_HHH_b1_00660_af2_000000090_0001_40_57_H_._HHH_b2_01268_0001_0000100009_0000001_0_af2pred_0001_af2pred (protein)
chain: SSSSSDEEEEEVRELLEEAKQIPDPEERERVLRKAALIAAEARNYELFALVLEVLEKLSSSSSSS
B13: il2ra_site2_3nfp_sap_22_mot_HHH_b2_04230_000000235_0001_39_52_H_._HHH_b2_04216_0001_0000300016_0000001_0_0001 (protein)
chain: SSSSSDDHEAYEQIVELLKRAAEIEDDEEVRRLLEEAKELAEEAGDRVLRRSIEDVEKALSSSSS
B14: il2ra_site1_1z92_sap_18_mot_HHH_b2_06343_000000059_0001_18_35_H_._HHH_b1_02126_af2_0001_0000100002_0000001_0_0001 (protein)
chain: SLEELIEEAERRGNPDVALLVRDAARALQLGLPPEKIKMVLERAAERAGIPPESLEEAKEIVEKG
B15: il2ra_site1_3nfp_sap_11_mot_HHH_b1_03420_af2_000000029_0001_41_57_H_._HHH_b1_02046_0001_0000100001_0000001_0_0001 (protein)
chain: SDEKVARWLTRDIEKRAGVPSVEVEVKDGTITLHVEGDDESAELAEEIFEWFAERSGIPFSVEKH
B16: il2ra_site2_3nfp_sap_20_mot_HHH_b1_02297_000000279_0001_41_58_H_._HHH_b1_01225_0001_0000100006_0000001_0_0001 (protein)
chain: SSSSSSDREEVEELLEEARQIEDEEEVEQILLRAASIAWELNDFELYAAVSEVDRELLSSSSSSS
B17: il2ra_site1_1z92_sap_15_mot_HHH_b2_06855_af2_000000074_0001_38_49_H_._HHH_b2_08011_0001_0000400015_0000001_0_0001_af2pred_0001_af2pred_1_swapped (protein)
chain: PEELAEEAKRLLKNGNPEEAEKVLEKLAKELGSEEAFKRDLEQAEKFFGNPEQALLALIRALARQ
B18: il2ra_site2_2erj_normal_mot_HHH_b1_03107_000000098_0001_39_52_H_._HHH_b2_00515_af2_0001_0000100011_0000001_0 (protein)
chain: SSSSDENWEAVAELLIEARKALKRGDEELVKELLREAKEVAEEGNNPAAKRYVEYVERDASSSSS
B19: il2ra_site2_2erj_sap_31_mot_HHH_b1_03572_af2_000000146_0001_41_56_H_._HHH_b2_06539_af2_0001_0000200005_0000001_0_0001 (protein)
chain: SSSSDELEERIEELLEELEKLVKEGDLARVLELAREIAELLRRLGDPELAKELNRLLQEAMSSSS
B20: il2ra_site1_2b5i_normal_mot_HHH_b2_04910_000000118_0001_1_19_H_._HHH_b1_00058_af2_0001_0000600017_0000001_0_af2pred_dldesign_0_af2pred (protein)
chain: SSSSSKKEEALRLFLEADELFQAGKAEEAKEKLEKARELAKEAGANLLVKIIDSALEDLESSSSS
B21: il2ra_site1_3nfp_sap_10_mot_HHH_b1_01159_af2_000000075_0001_1_20_H_._HHH_b1_01573_af2_0001_0000600012_0000001_0_0001_af2pred_0001_af2pred_1 (protein)
chain: SSSSDVEKEVEELLEEAEEALKNGDPEEALRLFEEARRLARENDDPELIRAVFKVLKEILSSSSS
B22: il2ra_site2_2erj_sap_26_mot_HHH_b2_00434_000000253_0001_22_38_H_._HHH_b2_02288_0001_0000100001_0000001_1_0001 (protein)
chain: SSSSDEELRRLFELASELMHALANGDEELAEEILEEIQKLAEELNTPRALEMAEEAFRLGSSSSS
B23: il2ra_site2_2erj_normal_mot_HHH_b1_07975_000000039_0001_41_57_H_._HHH_b1_00128_0001_0000400033_0000001_0 (protein)
chain: SSSSLEELYELAVLLLELIQNKDEEEFRKVLEEAERLAKETNNPNVEEMLEALEENFELLLSSSS
B24: il2ra_site2_2erj_normal_mot_HHH_b1_00612_000000025_0001_42_56_H_._HHH_b2_04071_0001_0000800020_0000001_0_af2pred_0001_af2pred (protein)
chain: SSSSSEEEELEELLEELKELLKEGDFERAREVTERIIRLALENNDPEVAELALRLLYEAASSSSS

Some of the results follow.

The target in the test is il2ra, P01589. Nature of the test: yeast display titration.
On to B1, for which the “apparent Kd” value is “inactive: no binding seen”. Turning to B2, the “apparent Kd” value is “inactive: no binding seen”. Consider B3, for which the “apparent Kd” value was “inactive: no binding seen”. On to B4, for which the “apparent Kd” value was “inactive: no binding seen”. For the molecule B5, the “apparent Kd” value was “inactive: no binding seen”. For the molecule B6, the “apparent Kd” value is “inactive: no binding seen”. For B7 the value was “inactive: no binding seen”; for B8, “inactive: no binding seen”; for B9, “inactive: no binding seen”. On to B10, for which the “apparent Kd” value was “inactive: no binding seen”. With B11, the “apparent Kd” value was “inactive: no binding seen”. For the molecule B12, the “apparent Kd” value was “inactive: no binding seen”. For B13, the “apparent Kd” value is “inactive: no binding seen”. On to B14, for which the “apparent Kd” value was “inactive: no binding seen”. The same measure for B15: “inactive: no binding seen”. Take B16: the “apparent Kd” value was “inactive: no binding seen”. Turning to B17, the “apparent Kd” value was “inactive: no binding seen”. Consider B18, for which the “apparent Kd” value is “inactive: no binding seen”. For the molecule B19, the “apparent Kd” value was “inactive: no binding seen”.

Take B20: the “apparent Kd” value was “inactive: no binding seen”.

B21: the “apparent Kd” value was “inactive: no binding seen”. With B22, the “apparent Kd” value was “inactive: no binding seen”. Take B23: the “apparent Kd” value is “inactive: no binding seen”.

Consider B24, for which the “apparent Kd” value is “inactive: no binding seen”.
